No constants are given. Whether binding was seen depends on the method and setting. Binding seen in cells or lysates may run through a third protein. Here binding means that the protein was enriched with, or labelled near, the bait; the list need not be complete. For some assays here: No binding means not detected with the bait. Where a sequence is shown, tags or fusion partners need not be part of it.
Legend:
[1] = target: T1, His6-tagged PA2504 expressed in P. aeruginosa ΔPA2504 (plasmid pKGB2504) (Pseudomonas aeruginosa) (UniProt Q9I0X8); assay: cross-linking + affinity purification with mass spectrometry; exponential phase culture; in vivo cross-linking with 0.4% formaldehyde for 10 min, His6-PA2504 isolated on Ni-NTA, cross-links reversed at 100 °C, SDS-PAGE; compared with the stationary phase
T1 sequence: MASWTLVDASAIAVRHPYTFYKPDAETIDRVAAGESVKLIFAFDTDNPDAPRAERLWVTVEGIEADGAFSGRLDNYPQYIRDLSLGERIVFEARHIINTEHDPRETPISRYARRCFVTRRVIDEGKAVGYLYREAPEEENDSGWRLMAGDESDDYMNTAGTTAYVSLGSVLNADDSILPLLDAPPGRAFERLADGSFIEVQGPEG

[2] = target: T1, His6-tagged PA2504 expressed in P. aeruginosa ΔPA2504 (plasmid pKGB2504) (Pseudomonas aeruginosa); assay: cross-linking + affinity purification with mass spectrometry; stationary phase culture; in vivo cross-linking with 0.4% formaldehyde for 10 min, His6-PA2504 isolated on Ni-NTA, cross-links reversed at 100 °C, SDS-PAGE, bands cut out and identified by mass spectrometry

B1: GacA global response regulator (PA2586) (protein, UniProt Q51373 1-214)
chain: MIKVLVVDDHDLVRTGITRMLADIEGLQVVGQADCGEDCLKLARELKPDVVLMDVKMPGIGGLEATRKLLRSQPDIKVVVVTVCEEDPFPTRLMQAGAAGYMTKGAGLEEMVQAIRQVFAGQRYISPQIAQQLALKSFQPQQHDSPFDSLSEREIQIALMIANCHKVQSISDKLCLSPKTVNTYRYRIFEKLSITSDVELALLAVRHGMVDAAS
binding [1]: no binding (only exponential phase of growth)
binding [2]: binds
